# PubChem BioAssay AID493246 | Drosophila RNAi Screening Center | 2011
# Aim: 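Genome-wide search for dsRNAs that reduce cell number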 (primary screen)
# Cell system: Drosophila Kc and S2R+ cells
# Reagents: long dsRNA against Drosophila genes
# Measurement: 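Cell number per well after knock-down, printed as raw plate values; calls were based on per-plate z-scores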
# Direction: Kc cell number and S2R+ cell number: higher = more cells remaining
# Hit rule: 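Active when the per-plate z-score of cell number is 3 or more in the direction of fewer cells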
# In all, the deposit lists about 21,000 reagents; shown is a random part of those with a known target gene and a result. In the full data, 429 (2%) were called active. 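Values are raw and not normalised between plates; calls rest on per-plate z-scores that were not deposited.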 A plus sign joins genes that one reagent is predicted to hit. No sequences are given here. The record does not give: the amount of reagent, the time to read-out.
predicted target,amplicon,"Kc cell number, rep 1","Kc cell number, rep 2","S2R+ cell number, rep 1","S2R+ cell number, rep 2",activity call
r-l,DRSC17042,1.42e6,1.61e6,1.05e6,1.17e6,inactive
TwdlH,DRSC14735,1.64e6,1.77e6,1.00e6,1.17e6,inactive
CG9631,DRSC14137,1.55e6,1.62e6,1.17e6,1.24e6,inactive
CG42780,DRSC17514,1.45e6,1.75e6,1.02e6,1.15e6,inactive
CG8564,DRSC10997,1.36e6,1.44e6,1.24e6,1.21e6,inactive
Dyrk2,DRSC03610,1.24e6,1.33e6,1.22e6,1.23e6,inactive
Wnt10,DRSC00990,1.54e6,1.59e6,9.82e5,1.16e6,inactive
Wnt10,DRSC02797,1.78e6,1.87e6,1.18e6,1.29e6,inactive
Pis,DRSC20178,1.41e6,1.48e6,1.03e6,1.11e6,inactive
CG7841,DRSC10922,1.41e6,1.45e6,1.32e6,1.40e6,inactive
vret,DRSC15640,1.46e6,1.52e6,1.20e6,1.28e6,inactive
RpLP0-like,DRSC06424,1.29e6,1.44e6,9.31e5,9.23e5,inactive
CG34408,DRSC17733,6.40e5,,9.13e5,,inactive
CG33272,DRSC09116,1.61e6,1.58e6,7.84e5,9.27e5,inactive
Ndae1,DRSC00975,1.53e6,1.64e6,9.84e5,1.12e6,inactive
Ndae1,DRSC02770,1.30e6,1.28e6,6.65e5,1.03e6,inactive
CG34234 + Dh44-R2,DRSC07278,1.34e6,1.52e6,1.12e6,1.10e6,inactive
Ssk,DRSC10756,1.67e6,1.68e6,1.24e6,1.29e6,inactive
lft,DRSC02236,1.48e6,1.52e6,1.19e6,1.32e6,inactive
CG8369,DRSC16413,1.49e6,1.58e6,1.37e6,1.48e6,inactive
PIG-Q,DRSC19138,1.38e6,1.66e6,1.07e6,1.23e6,inactive
CG5065,DRSC06912,1.60e6,1.61e6,1.19e6,1.31e6,inactive
CG43163,DRSC10745,1.41e6,1.35e6,1.12e6,1.17e6,inactive
CG43163,DRSC10748,1.38e6,1.36e6,1.10e6,1.14e6,inactive
CG8708,DRSC07240,1.51e6,1.56e6,1.12e6,1.15e6,inactive
Ir94c,DRSC13539,1.62e6,1.55e6,1.08e6,1.04e6,inactive
CG2260,DRSC18223,5.30e5,,8.78e5,,inactive
Nhe3,DRSC03380,1.47e6,1.41e6,1.08e6,1.27e6,inactive
ens,DRSC08454,1.44e6,1.51e6,1.24e6,1.19e6,inactive
CG14333 (retired record),DRSC14812,1.23e6,1.32e6,1.13e6,1.24e6,inactive
CG14333 (retired record),DRSC15769,1.50e6,1.57e6,1.14e6,1.23e6,inactive
senju,DRSC02366,1.67e6,1.54e6,1.12e6,1.36e6,inactive
CDase,DRSC14932,5.32e5,,8.53e5,,inactive
Ets21C,DRSC00751,1.55e6,1.62e6,1.12e6,1.22e6,inactive
CG7460,DRSC10850,1.43e6,1.52e6,1.32e6,1.47e6,inactive
Tsp29Fb,DRSC03233,1.55e6,1.57e6,1.09e6,1.20e6,inactive
CG15429,DRSC00444,1.57e6,1.58e6,1.21e6,1.38e6,inactive
CG10254,DRSC14153,1.52e6,1.56e6,1.19e6,1.30e6,inactive

Next part; the last 7 above are carried over.
predicted target,amplicon,"Kc cell number, rep 1","Kc cell number, rep 2","S2R+ cell number, rep 1","S2R+ cell number, rep 2",activity call
senju,DRSC02366,1.67e6,1.54e6,1.12e6,1.36e6,inactive
CDase,DRSC14932,5.32e5,,8.53e5,,inactive
Ets21C,DRSC00751,1.55e6,1.62e6,1.12e6,1.22e6,inactive
CG7460,DRSC10850,1.43e6,1.52e6,1.32e6,1.47e6,inactive
Tsp29Fb,DRSC03233,1.55e6,1.57e6,1.09e6,1.20e6,inactive
CG15429,DRSC00444,1.57e6,1.58e6,1.21e6,1.38e6,inactive
CG10254,DRSC14153,1.52e6,1.56e6,1.19e6,1.30e6,inactive
GLS,DRSC07261,1.50e6,1.56e6,1.09e6,1.10e6,inactive
CG7772,DRSC20056,1.47e6,1.53e6,1.05e6,1.18e6,inactive
SdhD,DRSC14215,1.45e6,1.59e6,8.94e5,1.03e6,inactive
CG32432,DRSC11703,9.60e5,6.80e5,6.11e5,7.01e5,active
CG32432,DRSC11704,1.48e6,1.45e6,8.01e5,8.61e5,active
CG32432,DRSC11744,1.30e6,1.31e6,1.32e6,1.36e6,inactive
CG14265,DRSC18591,1.73e6,1.71e6,1.04e6,1.16e6,inactive
pio,DRSC04386,1.44e6,1.65e6,1.13e6,1.12e6,inactive
Pdss2,DRSC11625,1.55e6,1.61e6,1.35e6,1.39e6,inactive
CG31562 (retired record),DRSC12273,1.65e6,2.01e6,1.24e6,1.38e6,inactive
CG31562 (retired record),DRSC12274,1.65e6,1.84e6,1.23e6,1.39e6,inactive
Vps26,DRSC18555,5.14e5,,6.65e5,,inactive
CG8155,DRSC07084,1.25e6,1.27e6,9.37e5,8.54e5,inactive
Ugt307A1,DRSC02138,1.79e6,1.81e6,1.37e6,1.47e6,inactive
CG40053 (retired record),DRSC20833,1.21e6,1.51e6,1.09e6,1.07e6,inactive
CG31041,DRSC13951,1.02e6,1.51e6,1.13e6,1.08e6,inactive
Picot,DRSC07508,1.67e6,1.53e6,1.09e6,1.14e6,inactive
S,DRSC00785,1.62e6,1.67e6,9.27e5,1.07e6,inactive
Ubc84D,DRSC12610,1.47e6,1.58e6,1.27e6,1.36e6,inactive
l(2)37Cd,DRSC02069,1.39e6,1.43e6,1.25e6,1.27e6,inactive
Cpr35B,DRSC01949,1.60e6,1.69e6,1.11e6,1.17e6,inactive
